This is one part of the list. Shown are side measurements of this screen, not its main read-out; they come without a call. Compounds called inactive in the main read-out are mostly missing here. The note in brackets gives the kind of curve behind each potency; many fits are weak.

The assay can be described thus: qHTS Assay for Lipid Storage Modulators in Drosophila S3 Cells.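 As to cell number change: cells counted by Cell Tracker Red CMTPX staining in the red channel.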 To be noted: BODIPY lipid droplet fluorescence, 18-24 h; for cell number change: measured here: cell count max response, cells fed with added oleic acid. The method in brief:
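Drosophila S3 cells loaded with oleic acid (400 uM, as added) and compounds at several concentrations; lipid droplets imaged by 488-nm laser-scanning cytometry, 500–530 nm intensity and object ratio to cell channel. Percent activity normalized to 20 uM Triacsin C.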

The mark [1] stands for this setting: measured here: cell number channel AC50, cells fed with added oleic acid.
Where [2] appears, read: measured here: lipid fluorescence (Fed channel) AC50, cells fed with added oleic acid.

As usually defined, the AC50 is the concentration giving half of the maximal activity seen. Lower therefore signals greater potency. As for `CCC(=O)OC1(C(=O)CCl)[C@@H](C)C[C@H]2[C@@H]3CCC4=CC(=O)C=C[C@]4(C)[C@@]3(F)[C@@H](O)C[C@@]21C` (stereo partly specified), the cell number change came out at 32%. For the same molecule, under setting [1], the AC50 was 0.0651 µM [rising, full curve]. Besides, the AC50 under setting [2] is 1.16 µM [rising, full curve].

On to `CC(C)CCn1c(=O)c(C(=O)N/N=C/c2cccc(F)c2)c(O)c2ccccc21`, for which the cell number change is -5.98%. For the same molecule, under setting [2], the AC50 is 0.00461 µM [rising, full curve, poor fit].

Regarding `C=CCSc1ccc(S(=O)(=O)N2CCN(C)CC2)cn1`, the cell number change was -3.1%. Also, the AC50 under setting [1] was 0.517 µM [falling, full curve, poor fit]. Besides, the AC50 under setting [2] is 0.103 µM [falling, full curve, poor fit].

Turning to `Cc1ncc[nH]1`, the cell number change came out at 3.62%. Moreover, under setting [2], the AC50 was 1.16 µM [rising, single point].

For the molecule `Cc1oc(-c2ccc(Cl)cc2)nc1CS(=O)CC(=O)NC1CCCCCC1` (stereo unspecified), the cell number change is -0.38%. The AC50 under setting [2] was 6.51 µM [rising, single point].

In the case of `O=C1c2ccccc2C(=O)C1(O)O`, the cell number change is -16.3%. Moreover, the AC50 under setting [2] was 10.3 µM [falling, single point].

Consider `CCOc1ccccc1NC(=O)c1nnn(CC(=O)Nc2ccc3c(c2)OCO3)c1N`, for which the cell number change came out at 15.2%.

`Cc1ccc(NC(=O)COc2cccc(C)c2C)cc1S(=O)(=O)N1CCCCCC1`: the cell number change stood at 29.8%. Further, the AC50 under setting [2] was 1.46 µM [rising, full curve].

In the case of `CC(NC(=O)C12CC3CC(CC(C3)C1)C2)C(=O)N/N=C/C1=C(N2CCOCC2)C(=C\c2ccccc2)/CC1` (stereo unspecified), the cell number change was -10.1%.

`CCOC(=O)c1c(-c2ccc(OC)cc2)csc1/N=C/C1=C(O)CCCC1=O`: the cell number change is -21%. Further, the half-maximal activity concentration (AC50) under setting [2] is 29.1 µM [falling, single point].

With `CCOc1ccccc1NC(=O)COC(=O)C(Cc1ccccc1)NC(=O)c1ccco1` (stereo unspecified), the cell number change was -3.88%. Also, the AC50 under setting [2] was 6.51 µM [falling, partial curve, poor fit].

For the molecule `Cc1ccc(C)c(Cn2c(=O)n(CCC(=O)NCc3ccco3)c(=O)c3sccc32)c1`, under setting [1], the AC50 is 6.51 µM [rising, partial curve, poor fit].

Take `CCCCNC(=S)Nc1ccc(C(F)(F)F)cc1`: the cell number change was -49.3%. Besides, the AC50 under setting [1] was 16.4 µM [falling, single point].

`Cn1nnc2cc(NC(=O)Nc3cccc(C(F)(F)F)c3)ccc21`: under setting [2], the AC50 was 1.16 µM [falling, full curve, poor fit].

On to `Cc1ccc(NC(=O)c2ccc(S(=O)(=O)NCc3cccnc3)cc2)cc1C`, for which the cell number change worked out at 12.8%. For the same molecule, the concentration at half-maximal activity (AC50) under setting [2] is 29.1 µM [falling, single point].

Take `O=C(COC(=O)Cc1cccc(C(F)(F)F)c1)NCc1ccco1`: the cell number change stood at 14.2%. Also, the AC50 under setting [2] was 6.51 µM [rising, partial curve, poor fit].

Consider `Cc1nn(Cc2ccccc2)c(N)c1-c1ccccc1`, for which the cell number change is -22.2%. Moreover, under setting [2], the AC50 was 0.00461 µM [rising, full curve, poor fit].

`COc1ccc(C(=O)Nc2ccc(Cl)cc2C(=O)N2CCCC(C)C2)cc1OC` (stereo unspecified): the cell number change stood at 1.28%. For the same molecule, under setting [2], the concentration at half-maximal activity (AC50) was 29.1 µM [rising, single point].

In the case of `COc1ccc(NC(=O)N2CCCC(C(=O)Nc3cccc(C)c3C)C2)cc1` (stereo unspecified), the cell number change was 10.3%.

`CCCCC1NC(C(=O)O)CS1` (stereo unspecified): the cell number change is -31.6%. Further, the AC50 under setting [1] was 5.17 µM [falling, full curve]. Also, under setting [2], the concentration at half-maximal activity (AC50) is 5.8 µM [falling, full curve, poor fit].

Take `O=C(NC1CCS(=O)(=O)C1)Oc1ccccc1` (stereo unspecified): the cell number change was -111%. Also, the AC50 under setting [2] was 0.116 µM [falling, full curve, poor fit].

For the molecule `COCCCNC(=O)c1cc(=O)n(Cc2ccc(Cl)cc2)c2ccccc12`, the cell number change is -32%. Moreover, the AC50 under setting [1] was 3.66 µM [falling, full curve]. Moreover, the AC50 under setting [2] was 3.26 µM [falling, full curve].

Regarding `Cc1ccc(S(=O)(=O)CCC(=O)N(CCN2CCOCC2)c2nc3ccccc3s2)cc1`, the cell number change is -40%. The AC50 under setting [1] was 18.4 µM [falling, partial curve].

Consider `O=C(Nc1ccc(Oc2ccc3c(c2)C(=O)N(c2ccc(O)cc2)C3=O)cc1)c1cccs1`, for which the cell number change was -32.5%. The AC50 under setting [1] was 3.66 µM [falling, partial curve, poor fit].

On to `CCc1ccccc1N1CC(C(=O)O)CC1=O` (stereo unspecified), for which the cell number change is -5.82%. Moreover, the AC50 under setting [2] was 0.116 µM [falling, full curve, poor fit].

On to `COC(=O)C1=C(C)N(CCCC(=O)O)C(=O)NC1c1ccc(Br)cc1` (stereo unspecified), for which the cell number change is -10.2%. Under setting [2], the half-maximal activity concentration (AC50) is 16.4 µM [falling, partial curve, poor fit].

With `CC(C)(C)N1CC(OC(N)=O)C1`, the cell number change is -20.1%. In addition, the AC50 under setting [2] was 5.8 µM [falling, full curve, poor fit].

Take `CC(Cl)C(=O)c1c[nH]c2ccccc12` (stereo unspecified): the cell number change is 36.4%. Besides, the AC50 under setting [1] is 0.0291 µM [rising, full curve, poor fit].

`CC(=O)C1=C(C)NC(SCc2cccc([N+](=O)[O-])c2)=C(C#N)C1c1ccco1` (stereo unspecified): the cell number change is -30%. Also, the AC50 under setting [1] is 29.1 µM [falling, single point]. For the same molecule, the AC50 under setting [2] was 2.31 µM [rising, partial curve, poor fit].

With `CC(=O)c1cccc(S(=O)(=O)NCC(C)(C)N2CCOCC2)c1`, the cell number change is 13.6%.

As for `COC(=O)c1cc(NC(=O)c2ccccc2)c(=O)oc1/C=C/Nc1ccc(Oc2ccccc2)cc1`, the cell number change was -97.7%. The AC50 under setting [1] was 29.1 µM [falling, partial curve, poor fit]. Also, the AC50 under setting [2] was 0.00517 µM [falling, full curve, poor fit].

`CC(Oc1ccccc1F)c1nnc(SCC(=O)c2c(N)n(C3CC3)c(=O)[nH]c2=O)o1` (stereo unspecified): the cell number change worked out at 14.2%. For the same molecule, the AC50 under setting [1] is 0.0291 µM [falling, full curve, poor fit].

Consider `CC(=O)Nc1ccc(NC(=O)/C=C/c2ccccc2)cc1`, for which the cell number change is -4.21%.

On to `Cc1ccc(C(=O)COC(=O)c2cc(Cl)nc3ccccc23)cc1C`, for which the cell number change stood at 8.89%. Further, under setting [2], the AC50 was 4.61 µM [rising, full curve, poor fit].

`O=C(COc1ccc2ccc(=O)oc2c1)NCc1ccccn1`: the cell number change stood at 15.5%.

With `Cc1ccc(S(=O)(=O)N(C)CC(=O)OCC(=O)N2CCCC2=O)cc1`, the AC50 under setting [1] was 6.51 µM [falling, partial curve, poor fit].

Turning to `CCS(=O)(=O)n1nc(-c2ccc(Cl)cc2)nc1SCc1ccccc1`, the cell number change is -80.4%. Besides, the AC50 under setting [1] is 29.1 µM [falling, single point]. Moreover, the AC50 under setting [2] was 29.1 µM [falling, single point].

In the case of `COc1cccc(OCC(=O)Nc2ccccc2C(=O)Nc2ccc(C(=O)O)cc2)c1`, the cell number change is 12.4%.

Take `NC(=O)c1cc(S(=O)(=O)NCc2cccc(Br)c2)cs1`: the cell number change was -22.1%. In addition, the AC50 under setting [2] is 29.1 µM [rising, single point].

In the case of `Cc1ccc(-c2nnc(Nc3ccc(OCC(N)=O)cc3)c3ccccc23)cc1S(N)(=O)=O`, the cell number change is -8.33%.

On to `CCS(=O)(=O)CCSC(=N)N`, for which the AC50 under setting [2] is 0.291 µM [falling, partial curve, poor fit].

`Oc1ccc(Cl)cc1-c1cc(-c2cccc(Br)c2)n[nH]1`: the cell number change is -3.9%. Also, under setting [1], the AC50 is 0.092 µM [rising, full curve, poor fit]. Further, the AC50 under setting [2] is 6.51 µM [falling, partial curve, poor fit].

Consider `Cc1ccc2nsnc2c1NC(=O)c1ccc2c(c1)OCCO2`, for which the cell number change was 25.9%. Further, the AC50 under setting [2] was 18.4 µM [rising, single point].

For the molecule `CCOC(=O)N1CCN(S(=O)(=O)c2ccc(Br)s2)CC1`, the cell number change amounted to 55.8%. Moreover, the AC50 under setting [1] is 20.6 µM [rising, single point]. Moreover, the concentration at half-maximal activity (AC50) under setting [2] is 13 µM [rising, partial curve].

For `COc1ccc2nc(/N=C(\N)NC(=O)Nc3ccccc3)nc(C)c2c1`, the cell number change is -43.8%. For the same molecule, under setting [1], the AC50 is 29.1 µM [falling, single point]. Also, the half-maximal activity concentration (AC50) under setting [2] was 0.116 µM [rising, full curve].

On to `COc1cc(NC(=O)COC(=O)Cc2ccc(-c3ccccc3)cc2)cc(OC)c1`, for which the cell number change was -30.1%. Moreover, the AC50 under setting [1] is 20.6 µM [falling, single point].

`COc1cc(OC)cc(C(=O)NNC(=O)CNC(=O)c2ccc(Br)o2)c1`: under setting [2], the half-maximal activity concentration (AC50) was 0.231 µM [rising, full curve, poor fit].

In the case of `Clc1ccc(C(Cn2ccnc2)OCc2c(Cl)cccc2Cl)c(Cl)c1` (stereo unspecified), the cell number change is -27.5%. Further, the AC50 under setting [1] is 0.461 µM [rising, full curve]. Also, the AC50 under setting [2] is 0.517 µM [rising, full curve].

Turning to `CN1/C(=C\C(=O)c2cccs2)C(C)(C)c2ccccc21`, the cell number change turned out to be 35.8%. The AC50 under setting [1] is 6.51 µM [rising, partial curve]. Besides, the AC50 under setting [2] is 29.1 µM [falling, partial curve, poor fit].

With `CN(CC(=O)Nc1cccc(F)c1)C(=O)C1CC(=O)N(CCc2ccccc2)C1` (stereo unspecified), the cell number change turned out to be 30.5%. In addition, the AC50 under setting [1] was 7.31 µM [rising, partial curve].

In the case of `Cc1cccc(NC(=O)COc2cccc3c2CCN(Cc2ccccc2)C3=O)c1C`, the cell number change was 1.78%. Also, the AC50 under setting [2] is 0.0517 µM [rising, full curve, poor fit].

With `Cc1ccc(S(=O)(=O)NCCC(=O)O)cc1`, the cell number change is -57.4%. Moreover, the AC50 under setting [1] was 29.1 µM [falling, single point].

As for `Cc1ccccc1C(=O)NNC(=O)CSc1nc(-c2ccccc2)cc(=O)[nH]1`, the cell number change is -43.8%. Also, under setting [1], the concentration at half-maximal activity (AC50) was 18.4 µM [falling, single point].

Consider `CCCCn1c(SCC(=O)N2CCC(C)CC2)nc2cc(S(N)(=O)=O)ccc21`, for which the cell number change was -18.6%.

With `NC(=O)CSc1nnc(-c2cnccn2)n1-c1ccccc1`, the cell number change stood at 10.8%. In addition, the AC50 under setting [2] was 1.46 µM [falling, partial curve].

Regarding `O=C(O)/C=C/C(=O)Nc1ccc(F)cc1F`, the cell number change was -7.34%. In addition, the concentration at half-maximal activity (AC50) under setting [2] is 8.2 µM [falling, partial curve, poor fit].

With `CCN(CC)c1ccc(/C=N/N(c2ccccc2)c2ccccc2)c(O)c1`, the cell number change is -45.5%. The AC50 under setting [1] was 18.4 µM [falling, single point]. Further, under setting [2], the AC50 was 20.6 µM [falling, partial curve].

Regarding `COCCNC(=O)C(c1ccc(C)o1)N(Cc1ccc(OC)cc1)C(=O)Cn1nnc2ccccc21` (stereo unspecified), the cell number change is 32.5%. Besides, under setting [1], the AC50 was 14.6 µM [rising, single point]. For the same molecule, the AC50 under setting [2] is 0.00517 µM [rising, full curve, poor fit].

The record behind these values is PubChem BioAssay AID2685 (National Center for Advancing Translational Sciences (NCATS), 2010).
